According to PubChem BioAssay AID504648 (National Center for Advancing Translational Sciences (NCATS), 2011):
Hit rate of the full screen: of about 390,000 compounds, about 610 (0.16%) were called active. The shares of active, inactive and inconclusive entries below differ from those in the screen. Calls come from the whole dose curve; as a rule, active = well fitted inhibition curve with a large enough effect; inconclusive = small, poorly fitted or top-dose-only effect, or effect the other way, or another doubt; inactive = no such curve, though single readings can be large or run the other way. Where the call is inconclusive, the potency comes from a doubtful curve fit.

assay: Nrf2 qHTS screen for inhibitors: counterscreen for cytotoxicity; settings: A549 ARE-Fluc cells, CellTiter-Fluor viability, 18-24 h; activity change, negative = cytotoxicity: at 46 µM (top of the series)
Summary of the method: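 A549 ARE-Fluc cells in 5% FBS OPTI-MEM, 5000 cells/well, rested 2 h then exposed to compounds in concentration-response for 18-24 h at 37 °C. Viability by CellTiter-Fluor fluorescence (Ex 405/Em 525) after 30 min; luciferase luminescence (BugLite, 15 min, RT) read afterwards.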
% is set by controls: 0 for no effect and ±100 for the full control effect; potency is the fitted concentration of half-maximal effect.

SMILES | Potency | activity change, negative = cytotoxicity
COc1ccc2cc1Oc1ccc(cc1)C[C@H]1c3c(cc(OC)c4c3Oc3c(ccc5c3[C@H](C2)N(C)CC5)O4)CCN1C | inconclusive: 14.6 µM [falling, single point] | 
CN(C)c1cc[n+](CC(=O)c2ccc(Br)cc2)cc1 | inconclusive: 16.4 µM [falling, partial curve, poor fit] | 
O=C(CO/N=C/c1ccccc1Cl)N1CCCc2ccccc21 | inconclusive: 29.1 µM [activator, partial curve, poor fit] | 
COc1ccccc1-c1sc2cc3c(cc2c1-c1ccc2c(c1)OCO2)OCO3 | inconclusive: 14.6 µM [activator, partial curve, poor fit] | 
Cc1cc(C(=O)OCC(=O)Nc2c(F)cccc2F)c(C)n1-c1ccccc1 | inconclusive: 20.6 µM [falling, partial curve, poor fit] | 
O=C(Nc1cccc2c1C(=O)NC2=O)c1ccccc1[N+](=O)[O-] | inconclusive: 20.6 µM [activator, partial curve, poor fit] | 
C[C@@H]1CN([C@@H](C)CO)C(=O)Cc2cc(NC(=O)Nc3ccc(F)cc3)ccc2O[C@@H]1CN(C)Cc1ccc(Cl)c(Cl)c1 | inconclusive: 29.1 µM [falling, partial curve, poor fit] | 
CN(C)c1ccc(C=c2c3ccccc3n3c2c2ccccc2[n+]3C)cc1 | inconclusive: 18.4 µM [falling, single point] | 
COc1cc(CNc2ccc(O)cc2)cc(Br)c1OCc1ccccc1F | active: 14.6 µM | 
COc1ccc([C@H]2CC(=O)C=C(c3ccc(Cl)c(C(F)(F)F)c3)C2)cc1OC | inconclusive: 18.4 µM [falling, single point] | 
CCOCCCn1c(=NC(=O)c2cccnc2)c(C(=O)OCC)cc2c(=O)n3ccccc3nc21 | inconclusive: 20.6 µM [activator, single point] | 
O=C(OCCN1C(=O)c2cccc3c(N4CCOCC4)ccc(c23)C1=O)c1ccc(Cl)cc1Cl | inconclusive: 29.1 µM [activator, single point] | 
Nc1ccc(N=Nc2ccc(O)cc2)c(N)n1 | inconclusive: 14.6 µM [falling, partial curve, poor fit] | 
O=C(CSc1nnc(Cc2cccs2)n1C1CC1)NC1CCS(=O)(=O)C1 (centres undefined) | inconclusive: 29.1 µM [activator, partial curve, poor fit] | 
O=C(Nc1nc(COc2ccccc2)cs1)C12CC3CC(CC(C3)C1)C2 | inconclusive: 18.4 µM [falling, single point] | 
COc1ccc2ccccc2c1C1NC(=O)c2ccccc2N1 (centres undefined) | inconclusive: 7.31 µM [falling, partial curve, poor fit] | 
CC(C)(C)c1cc(C(=O)NNC(=O)c2ccc(Cl)cc2)no1 |  | inactive: -8.77%
CCS(=O)(=O)c1oc(-c2ccc(F)cc2)nc1S(=O)(=O)c1ccc(Br)cc1 | inconclusive: 20.6 µM [falling, single point] | 
O=C1CN(C(=O)COc2ccc(Cl)cc2)C(c2ccc(F)cc2)c2cc(Br)ccc2N1 (centres undefined) | inconclusive: 16.4 µM [falling, partial curve, poor fit] | 
CC(=O)C1=C(c2ccc(Cl)c(Cl)c2)N(C(C)=O)n2cnnc2S1 | inconclusive: 29.1 µM [falling, partial curve, poor fit] | 
O=C1c2ccccc2S(=O)(=O)c2cc(N3CCOCC3)ccc21 | inconclusive: 29.1 µM [falling, partial curve, poor fit] | 
O=C(Nc1ccc2c(c1)OCO2)c1cnc2n(c1=O)CCS2 |  | inactive: 3.58%

Among those listed so far, 2 contain two or more sulfur atoms:
SMILES | Potency | activity change, negative = cytotoxicity
O=C(CSc1nnc(Cc2cccs2)n1C1CC1)NC1CCS(=O)(=O)C1 (centres undefined) | inconclusive: 29.1 µM [activator, partial curve, poor fit] | 
CCS(=O)(=O)c1oc(-c2ccc(F)cc2)nc1S(=O)(=O)c1ccc(Br)cc1 | inconclusive: 20.6 µM [falling, single point] | 

Carrying on:

SMILES | Potency | activity change, negative = cytotoxicity
Cc1ccc(C(=O)N2N=C(c3ccc(Br)cc3)CC2c2ccccc2O)cc1 (centres undefined) | inconclusive: 29.1 µM [falling, single point] | 
COc1cc(N2CCCC2)c(OC)cc1/C=C(/C#N)c1cccc(Br)c1 | inconclusive: 18.4 µM [falling, partial curve, poor fit] | 
COC(=O)CN1C(=O)CSc2ccc(S(=O)(=O)Nc3c(C)cc(C)cc3C)cc21 |  | inactive: 2.27%
CCOC(=O)c1c(C)oc2ncnc(N3CCN(c4ccccc4)CC3)c12 |  | inactive: 9.39%
CC(C)(C)OC(=O)N1CCC(c2c(C(=O)N3CCC(c4ccccc4)C3)cnn2-c2ccc(Cl)cc2)CC1 (centres undefined) | inconclusive: 29.1 µM [falling, partial curve, poor fit] | 
COc1cccc(CNC23CC4CC(CC(C4)C2)C3)c1OCc1ccccc1 | inconclusive: 29.1 µM [falling, partial curve, poor fit] | 
Cc1ccc(S(=O)(=O)NCCc2csc3nc(-c4ccccc4F)nn23)cc1C |  | inconclusive: -64.8% [activator]
CCN(CC)CCNC(=O)Cn1c(-c2ccccn2)nc2ccccc21 | inconclusive: 29.1 µM [activator, partial curve, poor fit] | 
COc1ccc(CC(=O)Nc2ccc(F)c(F)c2F)cc1S(=O)(=O)N1CCOCC1 |  | inactive: 0.376%
O=C(CSc1n[nH]c(-c2ccncc2)n1)Nc1ccc(Br)cc1 |  | inactive: -1.92%
CC(C)(C)c1nnc(NC(=O)Nc2ccc(Cl)cc2)s1 | inconclusive: 14.6 µM [falling, partial curve, poor fit] | 
COc1ccccc1CCNC(=O)C(=O)NCC(c1ccco1)S(=O)(=O)c1ccccc1 (centres undefined) |  | inactive: 14.8%
COc1cccc(C(=O)Oc2c(CN3CCOCC3)cc(Cl)c3cccnc23)c1 | inconclusive: 5.8 µM [falling, full curve, poor fit] | 
CCCCC(=O)OCC(=O)N1N=C(c2c[nH]c3ccccc23)C(O)C1c1ccc(OC)cc1 (centres undefined) | inconclusive: 29.1 µM [falling, single point] | 
COc1cc(C(=O)Nc2sc3c(c2C(=O)O)CCC(C)C3)cc(OC)c1OC (centres undefined) |  | inactive: -11.1%
Cc1ccc(NC(=O)c2ccc([N+](=O)[O-])o2)cc1C | inconclusive: 18.4 µM [falling, single point] | 
CN(C)c1ccc(C(=O)OCc2ccccc2)cc1 |  | inactive: 1.51%
CCN1C(=O)c2cccc3c(S(=O)(=O)N4CCC(C)CC4)ccc1c23 | inconclusive: 20.6 µM [activator, single point] | 
O=C(CSc1ccc(Cl)cc1)N/N=C/c1ccc([N+](=O)[O-])o1 | inconclusive: 20.6 µM [falling, partial curve, poor fit] | 
CC(C(=O)NCc1ccc2c(c1)OCO2)N1c2cccc3cccc(c23)S1(=O)=O (centres undefined) | inconclusive: 2.06 µM [activator, partial curve, poor fit] | 
O=C(c1nc2ccccc2[nH]1)c1ccccc1[N+](=O)[O-] |  | inactive: -10.7%
N#C/C(=N\Nc1ccc(Cl)c(Cl)c1)C(=O)C1CC1 | inconclusive: 20.6 µM [falling, partial curve] | 

SMILES | Potency | activity change, negative = cytotoxicity
O=C1S/C(=C\C=C\c2ccco2)C(=O)N1c1ccc(O)cc1 | inconclusive: 29.1 µM [falling, partial curve, poor fit] | 
CC(O)c1nc2ccccc2n1C/C=C/c1ccccc1 (centres undefined) |  | inactive: 0.037%
CCCc1ccc2oc(C(=O)N3CCC(COC)C3)c(C)c2c1 (centres undefined) | inconclusive: 16.4 µM [activator, partial curve, poor fit] | 
COc1cc2c(cc1NC(=S)Nc1cccc(C)c1)oc1ccccc12 |  | inactive: 27.2%
O=C(O)CCC(=O)N1CCN(c2nc(-c3ccccc3)c3ccccc3n2)CC1 |  | inactive: -9.9%
COc1ccc(NC(=O)CSC2=C(C#N)C(c3ccco3)C(C(=O)Nc3nc4ccccc4s3)=C(C)N2)cc1 (centres undefined) | inconclusive: 13 µM [falling, partial curve, poor fit] | 
S=C(N/N=C1\CCc2ccccc21)NC1CCCCC1 |  | inactive: 15.5%
C[C@H](CO)N1C[C@H](C)[C@@H](CN(C)C(=O)Nc2ccc(C(F)(F)F)cc2)Oc2c(NC(=O)Nc3ccccc3)cccc2C1=O |  | inactive: -21%
COc1ccccc1/C=C/c1nc(C#N)c(N2CCN(c3ccccc3)CC2)o1 | inconclusive: 0.92 µM [activator, full curve, poor fit] | 
CN(C)c1cccc(F)c1C(=O)NC(=O)Nc1ccc(Cl)cc1 |  | inactive: -2.53%
COC(=O)c1c(SCC(=O)Nc2cc(F)ccc2F)[nH]c2ccc(C)cc2c1=O | inconclusive: 29.1 µM [falling, partial curve, poor fit] | 
Cc1ccc(/C=C2\SC(=S)N(CCCC(=O)Nc3cccnc3)C2=O)cc1 | inconclusive: 29.1 µM [falling, single point] | 
COc1ccc(-c2cc(C(F)(F)F)nc(NCCc3ccccc3)n2)cc1 | inconclusive: 18.4 µM [activator, single point] | 
Cc1[nH]nc2c1C(c1cn[nH]c1-c1ccc(F)cc1)C(C#N)=C(N)O2 (centres undefined) | inconclusive: 18.4 µM [falling, partial curve, poor fit] | 
Cn1c2ccccc2c(=O)c2ccc(C#CC3(N)CCCCC3)cc21 | inconclusive: 20.6 µM [falling, single point] | 
CCN(CC)CCOc1ccc2c(c1)C(=NNC(=O)c1ccccn1)c1cc(OCCN(CC)CC)ccc1-2 | inconclusive: 20.6 µM [falling, partial curve] | 
Cn1cnc([N+](=O)[O-])c1S(=O)(=O)Oc1cccc2ccccc12 | inconclusive: 29.1 µM [falling, single point] | 
Nc1cc(C(=O)O)c(N)c2c1C(=O)c1ccccc1C2=O | inconclusive: 20.6 µM [falling, single point] | 
O=C(NCc1ccco1)c1c[nH]c2ccc(S(=O)(=O)N3CCOCC3)cc2c1=O |  | inactive: -8.38%
CCC(=O)N1CCc2cc(S(=O)(=O)NCCC(=O)Nc3ccc(OC)c(OC)c3)ccc21 |  | inactive: 14.9%
